{"sequences": {"note": "The chains behind the UniProt entries cited, without tags or fusion partners.", "UniProt Q8TEB1": "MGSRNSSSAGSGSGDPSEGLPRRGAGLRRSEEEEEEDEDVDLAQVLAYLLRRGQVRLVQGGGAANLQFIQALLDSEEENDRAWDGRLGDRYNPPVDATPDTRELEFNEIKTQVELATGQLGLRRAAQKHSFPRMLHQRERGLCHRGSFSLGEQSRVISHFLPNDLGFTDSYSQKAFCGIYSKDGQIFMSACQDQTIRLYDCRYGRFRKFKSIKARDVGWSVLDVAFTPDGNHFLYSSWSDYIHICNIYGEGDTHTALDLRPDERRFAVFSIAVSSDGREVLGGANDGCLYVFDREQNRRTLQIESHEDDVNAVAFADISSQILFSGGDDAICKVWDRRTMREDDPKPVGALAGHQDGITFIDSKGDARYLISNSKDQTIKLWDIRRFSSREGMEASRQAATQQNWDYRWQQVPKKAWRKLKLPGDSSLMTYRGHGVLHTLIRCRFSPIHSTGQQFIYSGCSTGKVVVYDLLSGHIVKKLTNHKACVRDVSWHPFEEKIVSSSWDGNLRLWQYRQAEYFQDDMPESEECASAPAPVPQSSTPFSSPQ", "UniProt P38936": "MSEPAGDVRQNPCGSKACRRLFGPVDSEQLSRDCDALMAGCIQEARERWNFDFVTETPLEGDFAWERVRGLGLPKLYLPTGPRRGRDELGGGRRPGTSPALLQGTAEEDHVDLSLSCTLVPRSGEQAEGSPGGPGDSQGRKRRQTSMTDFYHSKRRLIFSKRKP"}, "source": "paper PMC5430835", "target": "Flag-HA-DCAF11 (UniProt Q8TEB1)", "test": "affinity purification with mass spectrometry; Flag-HA-DCAF11 from transfected hFOB1.19, U2OS and Saos-2 cells; anti-Flag agarose, then anti-HA agarose (results); LC-MS/MS, MASCOT search", "note": "No constants are given. Whether binding was seen depends on the method and setting. Binding seen in cells or lysates may run through a third protein. These calls come from enrichment with a bait or labelling near it, and not all partners need be listed.", "data": [{"substance": "p21^Cip1 (from UniProt P38936 1-164)", "values": [{"measurement": "binding", "result": "binds"}]}]}
